Reference: patent publication US9493420B2, “Quinoline derivatives and uses thereof” (Portland State University, priority 2005, dated 2016)

Tested on: mitogen-induced murine spleen lymphocytes
Format: cell-based
Settings: for Therapeutic Index D6: ratio of cytotoxicity/IC50 for P. falciparum D6; for Therapeutic Index Dd2: ratio of cytotoxicity/IC50 for P. falciparum Dd2
Description: Mouse spleen lymphocytes were isolated from C57B1/6J mice by teasing tissues on a metallic sieve screen. […] Two hundred (200) μl isolated cells were then seeded in separate wells of a 96-well flat-bottom tissue culture plate at a density of 2×10^5 cells per well. […] After 72 hours incubation in a humidified atmosphere at 37° C. and 5% CO2, a solution of resazurin PBS was added to a final concentration 10 μM, and the plates were returned to the incubator for another 24 hours. Resazurin is a substrate which changes color in response to metabolic activity (such as, living cells). […] LC50 values were determined from plots of florescence versus drug concentration using non-linear regression by Prism software.

| SMILES | Therapeutic Index D6 | Therapeutic Index Dd2 |
| --- | --- | --- |
| Clc1ccc2c(NCCN3CCN(C(c4ccccc4)c4ccccc4)CC3)ccnc2c1 [RCQ_31] | 1900 | 528 |
| CN(CCCNc1ccnc2cc(Cl)ccc12)CCCN1c2ccccc2CCc2ccccc21 [RCQ_02, N′-(7-Chloro-quinolin-4-yl)-N-[3-(10,11-dihydro-dibenzo[b,f]azepin-5-yl)-propyl]-N-methyl-propane-1,3-diamine] | 240 | 132 |
| Clc1ccc2c(NCCCN3CCC(=C4c5ccccc5C=Cc5ccccc54)CC3)ccnc2c1 [RCQ_42] | 523 | 611 |
| CN(CCCN1c2ccccc2CCc2ccccc21)CCNc1ccnc2cc(Cl)ccc12 [RCQ_33] | 173 | 151 |
| Clc1ccc2c(NCCCNCCCN(Cc3ccccc3)Cc3ccccc3)ccnc2c1 [RCQ_22] | 16 | 9 |
| Clc1ccc2c(NCCCN3CCN(C(c4ccccc4)c4ccccc4)CC3)ccnc2c1 [RCQ_34] | 458 | 297 |
| Clc1ccc2c(NCCCN3CCCN(C(c4ccccc4)c4ccccc4)CC3)ccnc2c1 [RCQ_73] | 145 | 171 |
| Clc1ccc2c(NCCN3CCCN(C4c5ccccc5-c5ccccc54)CC3)ccnc2c1 [RCQ_72] | 272 | 260 |
| Clc1ccc(C(c2ccccc2)N2CCN(CCCNc3ccnc4cc(Cl)ccc34)CC2)cc1 (stereo not drawn) [RCQ_35] | 200 | 133 |
| Clc1ccc2c(NCCN3CCCN(C(c4ccccc4)c4ccccc4)CC3)ccnc2c1 [RCQ_36] | 453 | 54 |
| Fc1ccc(C(c2ccc(F)cc2)N2CCN(CCCNc3ccnc4cc(Cl)ccc34)CC2)cc1 [RCQ_37F2] | 273 | 215 |
| Clc1ccc(C(c2ccccc2)N2CCN(CCNc3ccnc4cc(Cl)ccc34)CC2)cc1 (stereo not drawn) [RCQ_32] | 538 | 412 |
| Clc1ccc(C(c2ccccc2)N2CCCN(CCCNc3ccnc4cc(Cl)ccc34)CC2)cc1 (stereo not drawn) [RCQ_74] | 60 | 92 |
| CCN1CCN(c2ccnc3cc(Cl)ccc23)CC1 [Q_38a] | 153 | 108 |
| Clc1ccc2c(NCCCN3CCCN(C4c5ccccc5-c5ccccc54)CC3)ccnc2c1 [RCQ_76] | 118 | 163 |
